Measurements: the supplement of paper PMC4604168 (melanoma cell lines)
The other results are listed elsewhere or left out. Many values rest on one well or one pass, so single values are uncertain.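 Imaging used 1,536-well plates; nuclei positive for cleaved PARP by antibody were divided by total DNA-stained nuclei to yield the apoptosis fraction. Doses for screening kept most cells viable, and cell lines differ markedly in resting and induced cleaved-PARP levels.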

Assays:
Assay in all cases: cleaved PARP positive nuclei fraction relative to DMSO control; melanoma cells; higher = more apoptosis
Conditions in all cases: library dose: low library concentration; 72 h
501Mel = system: 501Mel
A101D = system: A101D
A2058 = system: A2058
C32 = system: C32
CBRC008 = system: CBRC008 (line from a melanoma biopsy)
CBRC014 = system: CBRC014 (line from a melanoma biopsy)
CBRC016 = system: CBRC016 (line from a melanoma biopsy)
CBRC017 = system: CBRC017 (line from a melanoma biopsy)
COLO792 = system: COLO792
COLO800 = system: COLO800
COLO829 = system: COLO829
G361 = system: G361
IPC-298 = system: IPC-298
IST-MEL1 = system: IST-MEL1
LB2518-MEL = system: LB2518-MEL
LOXIMVI = system: LOXIMVI
A375 = system: A375
CBRC034 = system: CBRC034 (line from a melanoma biopsy)
MEL-HO = system: MEL-HO
CBRC013 = system: CBRC013 (line from a melanoma biopsy)

| Compound | cleaved PARP positive nuclei fraction (501Mel) | cleaved PARP positive nuclei fraction (A101D) | cleaved PARP positive nuclei fraction (A2058) | cleaved PARP positive nuclei fraction (C32) | cleaved PARP positive nuclei fraction (CBRC008) | cleaved PARP positive nuclei fraction (CBRC014) | cleaved PARP positive nuclei fraction (CBRC016) | cleaved PARP positive nuclei fraction (CBRC017) | cleaved PARP positive nuclei fraction (COLO792) | cleaved PARP positive nuclei fraction (COLO800) | cleaved PARP positive nuclei fraction (COLO829) | cleaved PARP positive nuclei fraction (G361) | cleaved PARP positive nuclei fraction (IPC-298) | cleaved PARP positive nuclei fraction (IST-MEL1) | cleaved PARP positive nuclei fraction (LB2518-MEL) | cleaved PARP positive nuclei fraction (LOXIMVI) | cleaved PARP positive nuclei fraction (A375) | cleaved PARP positive nuclei fraction (CBRC034) | cleaved PARP positive nuclei fraction (MEL-HO) | cleaved PARP positive nuclei fraction (CBRC013) |
| --- | --- | --- | --- | --- | --- | --- | --- | --- | --- | --- | --- | --- | --- | --- | --- | --- | --- | --- | --- | --- |
| Cc1cn(-c2cc(NC(=O)c3ccc(C)c(Nc4nccc(-c5cccnc5)n4)c3)cc(C(F)(F)F)c2)cn1 [nilotinib] + O=S(=O)(c1ccccc1)N(CC(F)(F)F)c1ccc(C(O)(C(F)(F)F)C(F)(F)F)cc1 [T0901317] (first compound 0.2 µM, partner dose 1.4 µM) | 93.2% | 40.5% | 53.2% | 166% | 229% | 91.4% | 65.2% | 86.4% | 111% | 54.9% | 81.8% | 130% | 143% | 208% | 61.1% | 51.4% | – | – | – | – |
| N#CC[C@H](C1CCCC1)n1cc(-c2ncnc3[nH]ccc23)cn1 [ruxolitinib] + Cn1sc(=O)n(Cc2ccccc2)c1=O [TDZD-8] (first compound 1 µM, partner dose 0.4 µM) | – | 95.4% | 108% | 66.8% | 68.7% | 87.3% | 163% | 102% | 71.3% | 66.7% | 123% | 174% | 83.6% | 60.4% | – | 247% | 26.3% | 135% | 98.4% | – |
| N#CC[C@H](C1CCCC1)n1cc(-c2ncnc3[nH]ccc23)cn1 [ruxolitinib] + OCCn1cc(-c2cnc3nnn(Cc4ccc5ncccc5c4)c3n2)cn1 [PF04217903] (first compound 1 µM, partner dose 1 µM) | – | 70.4% | 283% | 114% | 81% | 82.1% | 104% | 93.4% | 181% | 57.1% | 102% | 201% | 91.2% | 32.4% | – | 157% | 138% | – | 218% | 115% |
| O=C(/C=C/c1cccnc1)NCCCCC1CCN(C(=O)c2ccccc2)CC1 + NCC(=O)Nc1ccc(-n2nc(C(F)(F)F)cc2-c2ccc3c(ccc4ccccc43)c2)cc1 [OSU03012] (first compound 0.01 µM, partner dose 1 µM) | – | 93.7% | 71.6% | 150% | 2800% | 108% | 294% | 417% | 831% | 230% | 261% | 1700% | 300% | 89.1% | – | 27.6% | 7240% | – | 75.4% | 131% |
| COc1cc([C@@H]2c3cc4c(cc3[C@@H](O[C@@H]3O[C@@H]5CO[C@@H](C)O[C@H]5[C@H](O)[C@H]3O)[C@H]3COC(=O)[C@H]23)OCO4)cc(OC)c1O [etoposide] + O=C(Nc1cc(C(F)(F)F)cc(C(F)(F)F)c1)c1cc(Cl)ccc1O [IMD0354] (first compound 0.02 µM, partner dose 0.016 µM) | – | 45.3% | 135% | 181% | 127% | 87.5% | 184% | 94% | 164% | 68.2% | 66.2% | 98.2% | 60.8% | 121% | 55.1% | 365% | 296% | 44.3% | 28.7% | – |
| Cc1cn(-c2cc(NC(=O)c3ccc(C)c(Nc4nccc(-c5cccnc5)n4)c3)cc(C(F)(F)F)c2)cn1 [nilotinib] + N#Cc1c(O)c2c(-c3ccc(-c4ccccc4O)cc3)csc2[nH]c1=O [A769662] (first compound 0.2 µM, partner dose 2 µM) | 147% | 16.3% | 26.2% | 31.3% | 56.1% | 106% | 65.7% | 102% | 121% | 164% | 117% | 172% | 60.9% | 97.2% | 67.2% | 175% | – | – | – | – |
| O=c1[nH]nc(Sc2ncc([N+](=O)[O-])s2)n1-c1ccc2c(c1)OCCO2 + C=CCn1c(=O)c2cnc(Nc3ccc(N4CCN(C)CC4)cc3)nc2n1-c1cccc(C(C)(C)O)n1 [MK1775] (first compound 0.2 µM, partner dose 0.02 µM) | – | 96.9% | 138% | 165% | 116% | 99.4% | 121% | 113% | 81.5% | 87% | 70.6% | 145% | 139% | 99% | – | 50.9% | 128% | – | 64.7% | 89% |
| O=C(Nc1cc(C(F)(F)F)cc(C(F)(F)F)c1)c1cc(Cl)ccc1O + Oc1cc(-c2nc(-c3ccccc3)[nH]c2-c2ccncc2)ccc1Cl [L779450] (first compound 0.016 µM, partner dose 0.2 µM) | 93% | 50.4% | 40.4% | 61.1% | 169% | 104% | 104% | 83% | 210% | 153% | 97.3% | 171% | 85.2% | 148% | 81.9% | 45% | – | – | – | – |
| CC[C@]1(O)C[C@H]2CN(CCc3c([nH]c4ccccc34)[C@@](C(=O)OC)(c3cc4c(cc3OC)N(C=O)[C@H]3[C@@](O)(C(=O)OC)[C@H](OC(C)=O)[C@]5(CC)C=CCN6CC[C@]43[C@@H]65)C2)C1 [vincristine] + C[C@@H](Oc1cc(-c2cnn(C3CCNCC3)c2)cnc1N)c1c(Cl)ccc(F)c1Cl [Crizotinib] (first compound 0.0001 µM, partner dose 0.2 µM) | – | 68% | 188% | 197% | 36.4% | 99.9% | 83% | 205% | 188% | 110% | 52.9% | 180% | 90.3% | 25.8% | – | 98.3% | 364% | 45.1% | 177% | – |
| N#CC[C@H](C1CCCC1)n1cc(-c2ncnc3[nH]ccc23)cn1 [ruxolitinib] + Cc1cc([N+](=O)[O-])ccc1NS(=O)(=O)c1cc(Cl)ccc1Cl [FH535] (first compound 1 µM, partner dose 1 µM) | 166% | 24% | 90.9% | 48.4% | 339% | 132% | 1820% | 185% | 93.3% | 14.8% | 70.3% | 57.5% | 130% | 162% | 149% | 250% | – | – | – | – |
| CCCCCCCCCCCCCCCCCCOP(=O)([O-])OC1CC[N+](C)(C)CC1 [Perifosine] + N#Cc1c(O)c2c(-c3ccc(-c4ccccc4O)cc3)csc2[nH]c1=O [A769662] (first compound 0.4 µM, partner dose 2 µM) | 220% | 8.92% | 53.6% | 38.6% | 54.6% | 82% | 53.9% | 98.9% | 175% | 127% | 18.8% | 68.9% | 92.2% | 94.1% | 96.9% | 88.9% | – | – | – | – |
| COc1cc([C@@H]2c3cc4c(cc3[C@@H](O[C@@H]3O[C@@H]5CO[C@@H](C)O[C@H]5[C@H](O)[C@H]3O)[C@H]3COC(=O)[C@H]23)OCO4)cc(OC)c1O [etoposide] + N#Cc1c(O)c2c(-c3ccc(-c4ccccc4O)cc3)csc2[nH]c1=O [A769662] (first compound 0.02 µM, partner dose 2 µM) | 145% | 17.1% | 204% | 40.9% | 81.6% | 106% | 45.6% | 85.3% | 123% | 43.2% | 97.5% | 59.1% | 121% | 92% | 88.3% | 194% | – | – | – | – |
| N#CC[C@H](C1CCCC1)n1cc(-c2ncnc3[nH]ccc23)cn1 [ruxolitinib] + Oc1nc(-c2ccc(C(F)(F)F)cc2)nc2c1CSCC2 [XAV939] (first compound 1 µM, partner dose 2 µM) | 127% | 6.52% | 157% | 181% | 74.5% | 85.3% | 248% | 127% | – | 60.6% | 21.8% | 75.4% | 69.8% | 108% | 25.2% | 89.8% | – | – | – | – |
| O=c1[nH]nc(Sc2ncc([N+](=O)[O-])s2)n1-c1ccc2c(c1)OCCO2 + CCc1ccc(CCOc2ccc(CC3SC(=O)NC3=O)cc2)nc1 [pioglitazone] (first compound 0.2 µM, partner dose 2 µM) | 59.5% | 46.4% | 143% | 67.2% | 70.7% | 97.8% | 40.4% | 85.8% | 53.2% | 32.3% | 151% | 54.4% | 43.3% | 237% | 64.2% | 168% | – | – | – | – |
| COc1cc([C@@H]2c3cc4c(cc3[C@@H](O[C@@H]3O[C@@H]5CO[C@@H](C)O[C@H]5[C@H](O)[C@H]3O)[C@H]3COC(=O)[C@H]23)OCO4)cc(OC)c1O [etoposide] + Oc1cc(-c2nc(-c3ccccc3)[nH]c2-c2ccncc2)ccc1Cl [L779450] (first compound 0.02 µM, partner dose 0.2 µM) | 83.5% | 30.5% | 80.8% | 190% | 73.7% | 93.7% | 19.7% | 96.8% | 191% | 171% | – | – | 106% | 116% | 136% | 167% | – | – | – | – |
| COc1cc([C@@H]2c3cc4c(cc3[C@@H](O[C@@H]3O[C@@H]5CO[C@@H](C)O[C@H]5[C@H](O)[C@H]3O)[C@H]3COC(=O)[C@H]23)OCO4)cc(OC)c1O [etoposide] + COc1ccc2c(c1)CCC1C2CCC2(C)C(NCCCCCCN3C(=O)C=CC3=O)CCC12 [U73122] (first compound 0.02 µM, partner dose 0.4 µM) | 57.7% | 14.3% | 98.2% | 42.5% | 90.3% | 214% | 134% | 96.6% | 104% | 168% | – | 82.2% | 184% | 74.3% | 160% | 148% | – | – | – | – |
| O=c1[nH]nc(Sc2ncc([N+](=O)[O-])s2)n1-c1ccc2c(c1)OCCO2 + CCN(CC)CCCCNc1ncc2cc(-c3cc(OC)cc(OC)c3)c(NC(=O)NC(C)(C)C)nc2n1 [PD173074] (first compound 0.2 µM, partner dose 0.1 µM) | 230% | 54.5% | 231% | 43.8% | 110% | 105% | 53.2% | 100% | 119% | 146% | 72.7% | 102% | 87% | 92.6% | 32.3% | 202% | – | – | – | – |

Record cards, as listed above. Order of values: cleaved PARP positive nuclei fraction (501Mel)	cleaved PARP positive nuclei fraction (A101D)	cleaved PARP positive nuclei fraction (A2058)	cleaved PARP positive nuclei fraction (C32)	cleaved PARP positive nuclei fraction (CBRC008)	cleaved PARP positive nuclei fraction (CBRC014)	cleaved PARP positive nuclei fraction (CBRC016)	cleaved PARP positive nuclei fraction (CBRC017)	cleaved PARP positive nuclei fraction (COLO792)	cleaved PARP positive nuclei fraction (COLO800)	cleaved PARP positive nuclei fraction (COLO829)	cleaved PARP positive nuclei fraction (G361)	cleaved PARP positive nuclei fraction (IPC-298)	cleaved PARP positive nuclei fraction (IST-MEL1)	cleaved PARP positive nuclei fraction (LB2518-MEL)	cleaved PARP positive nuclei fraction (LOXIMVI)	cleaved PARP positive nuclei fraction (A375)	cleaved PARP positive nuclei fraction (CBRC034)	cleaved PARP positive nuclei fraction (MEL-HO)	cleaved PARP positive nuclei fraction (CBRC013)
O=C(/C=C/c1cccnc1)NCCCCC1CCN(C(=O)c2ccccc2)CC1 + NCC(=O)Nc1ccc(-n2nc(C(F)(F)F)cc2-c2ccc3c(ccc4ccccc43)c2)cc1 [OSU03012] (first compound 0.01 µM, partner dose 1 µM) as listed: –	93.7%	71.6%	150%	2800%	108%	294%	417%	831%	230%	261%	1700%	300%	89.1%	–	27.6%	7240%	–	75.4%	131%
O=c1[nH]nc(Sc2ncc([N+](=O)[O-])s2)n1-c1ccc2c(c1)OCCO2 + CCN(CC)CCCCNc1ncc2cc(-c3cc(OC)cc(OC)c3)c(NC(=O)NC(C)(C)C)nc2n1 [PD173074] (first compound 0.2 µM, partner dose 0.1 µM) as listed: 230%	54.5%	231%	43.8%	110%	105%	53.2%	100%	119%	146%	72.7%	102%	87%	92.6%	32.3%	202%	–	–	–	–
